{"sequences": {"note": "Amino acid sequences for entries named in this document (tags omitted). Residues count along the entry.", "UniProt P12579, residues 161-241": "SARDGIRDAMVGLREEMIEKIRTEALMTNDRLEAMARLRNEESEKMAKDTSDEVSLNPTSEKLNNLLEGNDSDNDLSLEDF", "UniProt P03418": "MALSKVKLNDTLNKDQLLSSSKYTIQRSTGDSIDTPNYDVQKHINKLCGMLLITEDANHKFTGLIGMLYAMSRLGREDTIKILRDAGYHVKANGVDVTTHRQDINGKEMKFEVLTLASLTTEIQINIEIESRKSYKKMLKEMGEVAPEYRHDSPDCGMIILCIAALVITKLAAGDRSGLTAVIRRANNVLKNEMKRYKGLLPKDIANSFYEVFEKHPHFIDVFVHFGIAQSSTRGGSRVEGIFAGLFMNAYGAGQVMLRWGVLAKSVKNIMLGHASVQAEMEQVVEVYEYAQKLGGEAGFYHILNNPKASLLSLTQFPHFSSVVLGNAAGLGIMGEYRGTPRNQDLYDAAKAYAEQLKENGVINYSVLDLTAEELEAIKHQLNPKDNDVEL"}, "source": "paper PMC8392014", "molecular_target": "RSV phosphoprotein fragment P_(161–241) (respiratory syncytial virus (RSV)) (UniProt P12579)", "test": "NMR titration; N-RNA rings added to P161-241 in the presence of garcinol; the read-out is not named in the sentence (garcinol mixtures were analysed by NMR, 293 K for P161-241); both purified", "note": "Results are given in words; binding and its absence hold for the method and conditions named. Some results given as binding are weak or reduced against the parent protein; the word gives no strength.", "data": [{"substance": "RSV N protein in the form of N-RNA rings (from UniProt P03418 1-391)", "values": [{"measurement": "binding", "result": "binds"}]}]}
